Values of other authors as cited in patent US8586629B2, “Composition for the treatment of oxidative stress” (Probiox SA, priority 2008, dated 2013).
At least one compound was matched to its structure with a doubt left.

Conditions: 6 week supplementation; cited from earlier work

In the case of C[C@@H]1O[C@@H](OC[C@H]2O[C@@H](Oc3c(-c4ccc(O)c(O)c4)oc4cc(O)cc(O)c4c3=O)[C@H](O)[C@@H](O)[C@@H]2O)[C@H](O)[C@H](O)[C@H]1O [rutin], the plasma antioxidant status is listed as “no effect”.
